Source: PMC12008848
Results are given in words; binding and its absence hold for the method and conditions named. In cells and extracts the contact can be indirect. Some results given as binding are weak or reduced against the parent protein; the word gives no strength. Sequences can lack the tags named with a protein.

Molecular target: T1, Flag-TRIM27 (tripartite motif-containing 27, wild type) (UniProt P14373)
T1 sequence: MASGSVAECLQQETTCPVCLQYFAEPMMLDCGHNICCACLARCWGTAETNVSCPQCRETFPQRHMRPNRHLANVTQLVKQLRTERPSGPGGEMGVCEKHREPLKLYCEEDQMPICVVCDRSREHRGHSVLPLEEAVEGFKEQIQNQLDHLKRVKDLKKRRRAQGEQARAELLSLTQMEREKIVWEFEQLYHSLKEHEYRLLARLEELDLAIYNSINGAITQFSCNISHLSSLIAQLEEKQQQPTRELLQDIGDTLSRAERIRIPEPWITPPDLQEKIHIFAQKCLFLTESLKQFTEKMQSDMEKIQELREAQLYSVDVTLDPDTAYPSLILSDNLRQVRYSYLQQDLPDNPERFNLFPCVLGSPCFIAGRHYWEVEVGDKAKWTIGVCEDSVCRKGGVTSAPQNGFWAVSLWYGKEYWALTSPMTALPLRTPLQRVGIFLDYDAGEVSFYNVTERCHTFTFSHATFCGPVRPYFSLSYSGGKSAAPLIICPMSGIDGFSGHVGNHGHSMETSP
Test: co-IP; 293T cells transfected with Myc-TAB2 and Flag-TRIM27 or Flag-TRIM27-ΔR; lysates immunoprecipitated with anti-Flag, blotted with anti-Flag or anti-Myc; extraction buffer 50 mM Tris-HCl pH 8.0, 150 mM NaCl, 1 mM EDTA, 0.5% Nonidet P40

binding: binds
B1: Myc-TAB2 (TAK1 binding protein 2) (protein, UniProt Q9NYJ8 1-693)
chain: MAQGSHQIDFQVLHDLRQKFPEVPEVVVSRCMLQNNNNLDACCAVLSQESTRYLYGEGDLNFSDDSGISGLRNHMTSLNLDLQSQNIYHHGREGSRMNGSRTLTHSISDGQLQGGQSNSELFQQEPQTAPAQVPQGFNVFGMSSSSGASNSAPHLGFHLGSKGTSSLSQQTPRFNPIMVTLAPNIQTGRNTPTSLHIHGVPPPVLNSPQGNSIYIRPYITTPGGTTRQTQQHSGWVSQFNPMNPQQVYQPSQPGPWTTCPASNPLSHTSSQQPNQQGHQTSHVYMPISSPTTSQPPTIHSSGSSQSSAHSQYNIQNISTGPRKNQIEIKLEPPQRNNSSKLRSSGPRTSSTSSSVNSQTLNRNQPTVYIAASPPNTDELMSRSQPKVYISANAATGDEQVMRNQPTLFISTNSGASAASRNMSGQVSMGPAFIHHHPPKSRAIGNNSATSPRVVVTQPNTKYTFKITVSPNKPPAVSPGVVSPTFELTNLLNHPDHYVETENIQHLTDPTLAHVDRISETRKLSMGSDDAAYTQALLVHQKARMERLQRELEIQKKKLDKLKSEVNEMENNLTRRRLKRSNSISQIPSLEEMQQLRSCNRQLQIDIDCLTKEIDLFQARGPHFNPSAIHNFYDNIGFVGPVPPKPKDQRSIIKTPKTQDTEDDEGAQWNCTACTFLNHPALIRCEQCEMPRHF
